# PubChem BioAssay AID504764, Drosophila RNAi Screening Center, 2011
# Test: 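Genes whose knock-down alters Notch-dependent transcription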 (primary screen)
# System: Drosophila Kc167 cells
# Knock-down reagent: long dsRNA against Drosophila genes
# Time to read-out: about 5 days (4 days dsRNA, then 24 h after transfection)
# Challenge: transfection of constitutively active membrane-tethered Notch lacking the extracellular domain, read 24 h later
# Measurement: 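Firefly luciferase from an E(spl)m3 reporter with active Notch, plus control-promoter and uninduced reporter wells for normalisation; unnormalised counts, duplicate wells a and b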
# Direction: induced reporter light, run 1, well a and induced reporter light, run 1, well b: higher = more light from the Notch target reporter with active Notch; control promoter light, run 1, well a and control promoter light, run 1, well b: higher = more light from the viral control promoter (cell number, transfection, viability); uninduced reporter light, run 1, well a: higher = more light from the Notch target reporter without active Notch
# Rule for the call: 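Hit if the duplicate-averaged log2 ratio of induced to control-promoter light gives a plate-wise z beyond ±2, or induced to uninduced beyond ±1.8; weak-control or discordant-duplicate wells dropped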
# Calls: active = modifier hit (raised or lowered Notch signal); inactive = not a hit
# The deposit covers about 22,000 reagents; shown is a random part of those that have a named target and a result. Over the whole deposit, 403 (1.9%) were called active. 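Unnormalised raw counts per well; ratio z-scores behind the hit calls and whether each hit raises or lowers signal are not deposited.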 Reagents against one gene are numbered here. A plus sign joins genes that one reagent is predicted to hit. Not given: the amount of reagent.
target gene,reagent no.,"induced reporter light, run 1, well a","induced reporter light, run 1, well b","control promoter light, run 1, well a","control promoter light, run 1, well b","uninduced reporter light, run 1, well a",call
CG7377,1,1.53e5,1.26e5,3.16e5,1.80e5,7160,inactive
CG12498,1,1.32e5,1.24e5,3.27e5,1.83e5,9020,inactive
orb2,1,1.06e5,83985,61875,33360,7995,inactive
orb2,2,1.65e5,1.62e5,1.90e5,1.91e5,6570,inactive
orb2,3,1.26e5,1.37e5,1.12e5,70785,15335,inactive
B-H2,1,3505,3050,3155,3295,4435,inactive
CG1827,1,1.94e5,1.59e5,1.38e5,1.25e5,13955,inactive
CG14306 (retired record),1,1.93e5,1.67e5,1.78e5,1.89e5,11065,inactive
Ets97D,1,1.34e5,1.17e5,1.80e5,1.89e5,10515,inactive
CG10352,1,90510,86795,1.22e5,1.40e5,6950,inactive
CatB,1,1.95e5,2.21e5,1.88e5,1.95e5,13910,inactive
Tomosyn,1,30705,30185,38975,41640,6815,inactive
Tomosyn,2,95710,98840,1.33e5,1.64e5,6040,inactive
Tomosyn,3,1.20e5,1.35e5,1.84e5,1.33e5,9405,inactive
Tomosyn,4,1.13e5,1.17e5,1.96e5,1.71e5,7985,inactive
GABA-B-R1,1,,,,,,inactive
CG12003,1,1.17e5,1.53e5,2.90e5,2.53e5,8015,inactive
Sar1,1,2.16e5,1.58e5,2.01e5,1.88e5,16635,inactive
Arts + Apl,1,1.93e5,1.91e5,2.28e5,1.84e5,10590,inactive
tmod,1,85265,1.31e5,1.25e5,1.23e5,9175,inactive
tmod,2,77260,64960,1.16e5,1.16e5,5790,inactive
tmod,3,1.41e5,1.36e5,1.89e5,1.86e5,12700,inactive
tmod,4,1.66e5,1.80e5,2.71e5,3.12e5,12392,inactive
CG32727,1,79455,68010,75875,57800,4675,inactive
CG7567,1,97280,1.12e5,1.61e5,1.59e5,9360,inactive
Wdr81,1,2.22e5,1.98e5,1.82e5,2.22e5,17390,inactive
CG1927,1,73955,69980,95980,1.00e5,4895,inactive
spag4,1,1.49e5,1.92e5,73360,1.00e5,20890,inactive
fs(1)N,1,1.51e5,1.56e5,2.30e5,1.88e5,9900,inactive
CG1792,1,1.55e5,1.33e5,2.23e5,2.34e5,11420,inactive
Art7,1,2.18e5,1.90e5,1.23e5,1.53e5,15895,active
CG31380,1,1.59e5,1.68e5,1.66e5,2.02e5,13805,inactive
CG44325,1,1.37e5,1.41e5,2.17e5,2.29e5,11585,inactive

Part of the list above in another layout.
orb2 #2 → induced reporter light, run 1, well a: 1.65e5; induced reporter light, run 1, well b: 1.62e5; control promoter light, run 1, well a: 1.90e5; control promoter light, run 1, well b: 1.91e5; uninduced reporter light, run 1, well a: 6570; call: inactive
orb2 #3 → induced reporter light, run 1, well a: 1.26e5; induced reporter light, run 1, well b: 1.37e5; control promoter light, run 1, well a: 1.12e5; control promoter light, run 1, well b: 70785; uninduced reporter light, run 1, well a: 15335; call: inactive
B-H2 → induced reporter light, run 1, well a: 3505; induced reporter light, run 1, well b: 3050; control promoter light, run 1, well a: 3155; control promoter light, run 1, well b: 3295; uninduced reporter light, run 1, well a: 4435; call: inactive
CG1827 → induced reporter light, run 1, well a: 1.94e5; induced reporter light, run 1, well b: 1.59e5; control promoter light, run 1, well a: 1.38e5; control promoter light, run 1, well b: 1.25e5; uninduced reporter light, run 1, well a: 13955; call: inactive
CG14306 (retired record) → induced reporter light, run 1, well a: 1.93e5; induced reporter light, run 1, well b: 1.67e5; control promoter light, run 1, well a: 1.78e5; control promoter light, run 1, well b: 1.89e5; uninduced reporter light, run 1, well a: 11065; call: inactive
Ets97D → induced reporter light, run 1, well a: 1.34e5; induced reporter light, run 1, well b: 1.17e5; control promoter light, run 1, well a: 1.80e5; control promoter light, run 1, well b: 1.89e5; uninduced reporter light, run 1, well a: 10515; call: inactive

The list goes on.
target gene,reagent no.,"induced reporter light, run 1, well a","induced reporter light, run 1, well b","control promoter light, run 1, well a","control promoter light, run 1, well b","uninduced reporter light, run 1, well a",call
Est-Q,1,97600,1.52e5,66425,92950,9292,inactive
CG11983,1,40195,56995,44230,45480,3085,inactive
CG6833,1,78965,85525,41870,65145,8295,inactive
CG14990,1,1.54e5,1.34e5,1.96e5,2.17e5,9715,inactive
CG5886,1,1.48e5,1.60e5,2.29e5,2.46e5,12370,inactive
Elp2,1,1.76e5,1.65e5,1.98e5,1.77e5,14620,inactive
CG9521,1,1.03e5,84980,1.03e5,91150,14850,inactive
Sgs8,1,1.86e5,1.51e5,2.31e5,1.73e5,6970,inactive
r-cup,1,95830,96545,1.16e5,1.21e5,10735,inactive
Fum4,1,,,,,,inactive
CG5854,1,1.65e5,2.03e5,2.71e5,2.38e5,15085,inactive
Cpn,1,1.16e5,1.04e5,67195,71960,8550,inactive
lncRNA:CR42862 + CG33229,1,95890,87750,1.63e5,1.87e5,5795,inactive
CG7333,1,1.96e5,1.92e5,1.64e5,1.59e5,13900,inactive
Spn38F,1,64405,49435,59365,54155,3755,inactive
Ent2,1,2.31e5,2.11e5,2.43e5,2.13e5,20130,inactive
r-l,1,1.57e5,1.84e5,1.97e5,2.49e5,15145,inactive
r-l,2,,,,,,inactive
